# Data as given in PubChem BioAssay AID1159578 (Peter MacCallum Cancer Centre, 2015).
# Purpose: 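Genome-wide hunt for genes controlling movement of lymphatic endothelial cells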 (primary screen)
# Cells: human lymphatic endothelial cells
# Reagents: siRNA pool against human genes, 40 nM
# Timing: 48 h after transfection
# Detection: 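Cells stained with dye and imaged after a scratch; covered wound area and nuclei counted, duplicates averaged, migration set against mock wells and turned into a robust z-score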
# Scale: migration robust z-score: higher = faster migration into the scratch; migration relative to mock: higher = more scratch area covered than mock; nuclei per well: higher = more cells in the well
# Rule for the call: 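Migration changed when robust z exceeds 2 or falls below -2 and mean nuclei number is at least 3300; otherwise not called changed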
# Meaning of the calls: active = migration changed; inactive = no migration change, or too few cells
# Shown is a random part of about 18,000 reagents tested. About 1,030 of them (5.7%) count as active. 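Inactive calls also include pools with fewer than 3300 nuclei, whose migration was not assessed.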 Raw values vary from plate to plate and are shown uncorrected. A number with no mark means an inactive call.
target gene,migration robust z-score,migration class with cell-count check,migration relative to mock,"nuclei per well, duplicate mean"
LRRC3 (leucine rich repeat containing 3),-0.82,under 3300 nuclei; migration not judged,0.67,2826
CCDC136 (coiled-coil domain containing 136),-0.49,migration z between -2 and 2; enough cells,0.76,5409
KCNRG (potassium channel regulator),0.99,migration z between -2 and 2; enough cells,1,4848
ADAD1 (adenosine deaminase domain containing 1),0.73,migration z between -2 and 2; enough cells,0.94,5779
JAKMIP2 (janus kinase and microtubule interacting protein 2),-1.33,migration z between -2 and 2; enough cells,0.54,6088
DHX37 (DEAH-box helicase 37),2.03 (active),migration z above 2; enough cells,1.2,5496
SLC41A2,-1.32,migration z between -2 and 2; enough cells,0.55,5450
GFRA2 (GDNF family receptor alpha 2),1.48,migration z between -2 and 2; enough cells,1.27,4818
DUSP4 (dual specificity phosphatase 4),0.96,migration z between -2 and 2; enough cells,0.99,6652
TRIR (telomerase RNA component interacting RNase),-1.39,migration z between -2 and 2; enough cells,0.53,5014
ADRA2A (adrenoceptor alpha 2A),0.06,migration z between -2 and 2; enough cells,0.82,5708
UBAC2 (UBA domain containing 2),1.88,migration z between -2 and 2; enough cells,1.38,5655
OR4F21 (olfactory receptor family 4 subfamily F member 21),-0.11,migration z between -2 and 2; enough cells,0.86,5314
"FGD3 (FYVE, RhoGEF and PH domain containing 3)",-0.44,migration z between -2 and 2; enough cells,0.77,5054
SPHK2 (sphingosine kinase 2),-1.61,migration z between -2 and 2; enough cells,0.5,4952

Entries listed so far with an active call (1):
target gene,migration robust z-score,migration class with cell-count check,migration relative to mock,"nuclei per well, duplicate mean"
DHX37 (DEAH-box helicase 37),2.03 (active),migration z above 2; enough cells,1.2,5496

Next entries follow:
target gene,migration robust z-score,migration class with cell-count check,migration relative to mock,"nuclei per well, duplicate mean"
MTMR10 (myotubularin related protein 10),-0.91,migration z between -2 and 2; enough cells,0.64,6366
MKX (mohawk homeobox),-0.26,migration z between -2 and 2; enough cells,0.82,5782
ULK3 (unc-51 like kinase 3),0.65,migration z between -2 and 2; enough cells,0.93,7216
SRSF9 (serine and arginine rich splicing factor 9),0.54,migration z between -2 and 2; enough cells,1.02,5734
FBXO11 (F-box protein 11),-0.39,migration z between -2 and 2; enough cells,0.73,5782
FRG1 (FSHD region gene 1),0.36,migration z between -2 and 2; enough cells,0.98,5541
KIF19 (kinesin family member 19),-0.62,migration z between -2 and 2; enough cells,0.73,5566
GOLT1A (golgi transport 1A),-0.22,migration z between -2 and 2; enough cells,0.82,6074
KCNJ1 (potassium inwardly rectifying channel subfamily J member 1),-1.4,migration z between -2 and 2; enough cells,0.54,4066
GRM1 (glutamate metabotropic receptor 1),-0.1,migration z between -2 and 2; enough cells,0.78,6219
HNRNPC (heterogeneous nuclear ribonucleoprotein C),-1,migration z between -2 and 2; enough cells,0.63,4807
ZFP14 (ZFP14 zinc finger protein),0.12,migration z between -2 and 2; enough cells,0.92,5366
TCF23 (transcription factor 23),-0.94,migration z between -2 and 2; enough cells,0.64,3483
RTN4IP1 (reticulon 4 interacting protein 1),-3.4,under 3300 nuclei; migration not judged,0.15,2676
KCNG3,0.57,migration z between -2 and 2; enough cells,0.92,4947
CFAP52 (cilia and flagella associated protein 52),-1.08,migration z between -2 and 2; enough cells,0.6,5763
DHX36 (DEAH-box helicase 36),-0.47,migration z between -2 and 2; enough cells,0.72,3906
ASCC1 (activating signal cointegrator 1 complex subunit 1),1.73,migration z between -2 and 2; enough cells,1.34,5718
C1orf87 (chromosome 1 open reading frame 87),-2.4 (active),migration z below -2; enough cells,0.26,4491
FAM110A (family with sequence similarity 110 member A),0.48,migration z between -2 and 2; enough cells,1.01,5614
B3GNT5,-0.78,migration z between -2 and 2; enough cells,0.66,6554
LEMD3 (LEM domain containing 3),1.29,migration z between -2 and 2; enough cells,1.22,6178
PXMP4 (peroxisomal membrane protein 4),0.46,migration z between -2 and 2; enough cells,1,5491
RNF185 (ring finger protein 185),0.1,migration z between -2 and 2; enough cells,0.82,4817
